Reference: PMC11091053
No constants are given. Whether binding was seen depends on the method and setting. Binding seen in cells or lysates may run through a third protein. Some results given as binding are weak or reduced against the parent protein; the word gives no strength. For some of these results: Where a sequence is shown, tags or fusion partners need not be part of it.

The chains behind the UniProt entries cited, without tags or fusion partners. Where a name states a change or a piece, a line headed by the entry shows the natural chain unless it says otherwise.
UniProt P62897: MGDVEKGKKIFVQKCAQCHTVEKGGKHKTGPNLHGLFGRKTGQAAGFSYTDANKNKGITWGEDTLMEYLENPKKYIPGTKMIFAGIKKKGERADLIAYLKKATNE

T1: Myc-DDK-tagged wild-type mouse Pirh2 (mouse) (UniProt Q9CR50)
T1 sequence: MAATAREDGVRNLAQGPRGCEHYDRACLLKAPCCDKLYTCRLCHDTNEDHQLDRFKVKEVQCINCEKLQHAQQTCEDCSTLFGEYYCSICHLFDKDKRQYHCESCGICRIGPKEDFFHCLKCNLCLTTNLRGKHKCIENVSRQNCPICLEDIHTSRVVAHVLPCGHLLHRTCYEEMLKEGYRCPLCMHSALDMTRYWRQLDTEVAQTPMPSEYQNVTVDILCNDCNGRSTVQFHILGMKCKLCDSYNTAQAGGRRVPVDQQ

T2: Pirh2 (p53-induced RING-H2 protein), endogenous in N2A cells (mouse (endogenous in N2A)) (UniProt Q9CR50)
T2 sequence: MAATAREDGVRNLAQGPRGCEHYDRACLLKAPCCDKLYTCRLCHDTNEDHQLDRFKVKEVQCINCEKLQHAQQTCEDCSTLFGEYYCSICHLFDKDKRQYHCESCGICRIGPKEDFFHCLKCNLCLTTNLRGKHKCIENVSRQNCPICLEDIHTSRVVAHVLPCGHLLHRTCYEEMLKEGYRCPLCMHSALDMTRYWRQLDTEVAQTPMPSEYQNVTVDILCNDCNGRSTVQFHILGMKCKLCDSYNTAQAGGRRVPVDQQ


Legend:
[1] = target: T1, Myc-DDK-tagged wild-type mouse Pirh2 (mouse); assay: co-IP; anti-Flag antibody on protein G-Sepharose, lysate of N2A cells transiently transfected with Myc-DDK-Pirh2; blotted for cytochrome c and Pirh2; IgG as negative control
[2] = target: T2, Pirh2 (p53-induced RING-H2 protein), endogenous in N2A cells (mouse (endogenous in N2A)); assay: co-IP; anti-Pirh2 antibody, cytosolic fractions of N2A cells (scrambled or siRNA-Pirh2, with or without STZ or Aβ1-42) and of rat brain cortex and hippocampus (with or without Aβ1-42); blotted for cytochrome c and Pirh2; IgG as negative control
[3] = target: T2, Pirh2 (p53-induced RING-H2 protein), endogenous in N2A cells (mouse (endogenous in N2A)); assay: co-IP; anti-Pirh2 antibody on protein G-Sepharose, overnight 4 °C, 2 mg whole lysate of N2A cells (with or without STZ and MG132) or of rat brain cortex and hippocampus (with or without STZ); blotted for cytochrome c and Pirh2; IgG as negative control
[4] = target: cytochrome c, endogenous in N2A cells (mouse (endogenous in N2A)) (UniProt P62897); assay: co-IP; reverse: anti-cytochrome c antibody on protein G-Sepharose, N2A cell lysate and rat brain cortex and hippocampus lysate; blotted for Pirh2 and cytochrome c; IgG as negative control

binding [1] | binding [2] | binding [3] | binding [4] | Molecule
binds | binds | binds | – | cytochrome c, endogenous in N2A cells (from UniProt P62897 1-105)
– | – | – | binds | Pirh2 (p53-induced RING-H2 protein), endogenous in N2A cells (protein, UniProt Q9CR50 1-261) MAATAREDGVRNLAQGPRGCEHYDRACLLKAPCCDKLYTCRLCHDTNEDHQLDRFKVKEVQCINCEKLQHAQQTCEDCSTLFGEYYCSICHLFDKDKRQYHCESCGICRIGPKEDFFHCLKCNLCLTTNLRGKHKCIENVSRQNCPICLEDIHTSRVVAHVLPCGHLLHRTCYEEMLKEGYRCPLCMHSALDMTRYWRQLDTEVAQTPMPSEYQNVTVDILCNDCNGRSTVQFHILGMKCKLCDSYNTAQAGGRRVPVDQQ
